No constants are given. Whether binding was seen depends on the method and setting. Binding seen in cells or lysates may run through a third protein. Some results given as binding are weak or reduced against the parent protein; the word gives no strength.

Amino acid sequences for entries named in this document (tags omitted). A change or cut given only in a name is not applied to a line headed by its entry. Chains listed by the source or under a name are the forms on record and can include a tag or linker.
UniProt O95619: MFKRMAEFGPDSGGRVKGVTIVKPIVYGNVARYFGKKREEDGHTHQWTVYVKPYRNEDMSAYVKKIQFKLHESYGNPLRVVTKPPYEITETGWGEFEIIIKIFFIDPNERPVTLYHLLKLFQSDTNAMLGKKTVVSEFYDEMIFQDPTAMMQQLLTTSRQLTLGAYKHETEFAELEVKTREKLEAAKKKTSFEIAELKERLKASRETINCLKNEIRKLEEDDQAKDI
SFB-tagged YEATS4 K64, 65, 69R (3KR) mutant (O95619, form named): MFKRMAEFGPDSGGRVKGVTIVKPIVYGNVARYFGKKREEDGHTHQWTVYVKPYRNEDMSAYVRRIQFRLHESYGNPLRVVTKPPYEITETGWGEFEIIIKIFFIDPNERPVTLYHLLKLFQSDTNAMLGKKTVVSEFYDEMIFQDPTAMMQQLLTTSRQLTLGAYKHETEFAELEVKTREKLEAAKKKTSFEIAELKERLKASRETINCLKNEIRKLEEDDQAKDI
UniProt Q7Z6Z7: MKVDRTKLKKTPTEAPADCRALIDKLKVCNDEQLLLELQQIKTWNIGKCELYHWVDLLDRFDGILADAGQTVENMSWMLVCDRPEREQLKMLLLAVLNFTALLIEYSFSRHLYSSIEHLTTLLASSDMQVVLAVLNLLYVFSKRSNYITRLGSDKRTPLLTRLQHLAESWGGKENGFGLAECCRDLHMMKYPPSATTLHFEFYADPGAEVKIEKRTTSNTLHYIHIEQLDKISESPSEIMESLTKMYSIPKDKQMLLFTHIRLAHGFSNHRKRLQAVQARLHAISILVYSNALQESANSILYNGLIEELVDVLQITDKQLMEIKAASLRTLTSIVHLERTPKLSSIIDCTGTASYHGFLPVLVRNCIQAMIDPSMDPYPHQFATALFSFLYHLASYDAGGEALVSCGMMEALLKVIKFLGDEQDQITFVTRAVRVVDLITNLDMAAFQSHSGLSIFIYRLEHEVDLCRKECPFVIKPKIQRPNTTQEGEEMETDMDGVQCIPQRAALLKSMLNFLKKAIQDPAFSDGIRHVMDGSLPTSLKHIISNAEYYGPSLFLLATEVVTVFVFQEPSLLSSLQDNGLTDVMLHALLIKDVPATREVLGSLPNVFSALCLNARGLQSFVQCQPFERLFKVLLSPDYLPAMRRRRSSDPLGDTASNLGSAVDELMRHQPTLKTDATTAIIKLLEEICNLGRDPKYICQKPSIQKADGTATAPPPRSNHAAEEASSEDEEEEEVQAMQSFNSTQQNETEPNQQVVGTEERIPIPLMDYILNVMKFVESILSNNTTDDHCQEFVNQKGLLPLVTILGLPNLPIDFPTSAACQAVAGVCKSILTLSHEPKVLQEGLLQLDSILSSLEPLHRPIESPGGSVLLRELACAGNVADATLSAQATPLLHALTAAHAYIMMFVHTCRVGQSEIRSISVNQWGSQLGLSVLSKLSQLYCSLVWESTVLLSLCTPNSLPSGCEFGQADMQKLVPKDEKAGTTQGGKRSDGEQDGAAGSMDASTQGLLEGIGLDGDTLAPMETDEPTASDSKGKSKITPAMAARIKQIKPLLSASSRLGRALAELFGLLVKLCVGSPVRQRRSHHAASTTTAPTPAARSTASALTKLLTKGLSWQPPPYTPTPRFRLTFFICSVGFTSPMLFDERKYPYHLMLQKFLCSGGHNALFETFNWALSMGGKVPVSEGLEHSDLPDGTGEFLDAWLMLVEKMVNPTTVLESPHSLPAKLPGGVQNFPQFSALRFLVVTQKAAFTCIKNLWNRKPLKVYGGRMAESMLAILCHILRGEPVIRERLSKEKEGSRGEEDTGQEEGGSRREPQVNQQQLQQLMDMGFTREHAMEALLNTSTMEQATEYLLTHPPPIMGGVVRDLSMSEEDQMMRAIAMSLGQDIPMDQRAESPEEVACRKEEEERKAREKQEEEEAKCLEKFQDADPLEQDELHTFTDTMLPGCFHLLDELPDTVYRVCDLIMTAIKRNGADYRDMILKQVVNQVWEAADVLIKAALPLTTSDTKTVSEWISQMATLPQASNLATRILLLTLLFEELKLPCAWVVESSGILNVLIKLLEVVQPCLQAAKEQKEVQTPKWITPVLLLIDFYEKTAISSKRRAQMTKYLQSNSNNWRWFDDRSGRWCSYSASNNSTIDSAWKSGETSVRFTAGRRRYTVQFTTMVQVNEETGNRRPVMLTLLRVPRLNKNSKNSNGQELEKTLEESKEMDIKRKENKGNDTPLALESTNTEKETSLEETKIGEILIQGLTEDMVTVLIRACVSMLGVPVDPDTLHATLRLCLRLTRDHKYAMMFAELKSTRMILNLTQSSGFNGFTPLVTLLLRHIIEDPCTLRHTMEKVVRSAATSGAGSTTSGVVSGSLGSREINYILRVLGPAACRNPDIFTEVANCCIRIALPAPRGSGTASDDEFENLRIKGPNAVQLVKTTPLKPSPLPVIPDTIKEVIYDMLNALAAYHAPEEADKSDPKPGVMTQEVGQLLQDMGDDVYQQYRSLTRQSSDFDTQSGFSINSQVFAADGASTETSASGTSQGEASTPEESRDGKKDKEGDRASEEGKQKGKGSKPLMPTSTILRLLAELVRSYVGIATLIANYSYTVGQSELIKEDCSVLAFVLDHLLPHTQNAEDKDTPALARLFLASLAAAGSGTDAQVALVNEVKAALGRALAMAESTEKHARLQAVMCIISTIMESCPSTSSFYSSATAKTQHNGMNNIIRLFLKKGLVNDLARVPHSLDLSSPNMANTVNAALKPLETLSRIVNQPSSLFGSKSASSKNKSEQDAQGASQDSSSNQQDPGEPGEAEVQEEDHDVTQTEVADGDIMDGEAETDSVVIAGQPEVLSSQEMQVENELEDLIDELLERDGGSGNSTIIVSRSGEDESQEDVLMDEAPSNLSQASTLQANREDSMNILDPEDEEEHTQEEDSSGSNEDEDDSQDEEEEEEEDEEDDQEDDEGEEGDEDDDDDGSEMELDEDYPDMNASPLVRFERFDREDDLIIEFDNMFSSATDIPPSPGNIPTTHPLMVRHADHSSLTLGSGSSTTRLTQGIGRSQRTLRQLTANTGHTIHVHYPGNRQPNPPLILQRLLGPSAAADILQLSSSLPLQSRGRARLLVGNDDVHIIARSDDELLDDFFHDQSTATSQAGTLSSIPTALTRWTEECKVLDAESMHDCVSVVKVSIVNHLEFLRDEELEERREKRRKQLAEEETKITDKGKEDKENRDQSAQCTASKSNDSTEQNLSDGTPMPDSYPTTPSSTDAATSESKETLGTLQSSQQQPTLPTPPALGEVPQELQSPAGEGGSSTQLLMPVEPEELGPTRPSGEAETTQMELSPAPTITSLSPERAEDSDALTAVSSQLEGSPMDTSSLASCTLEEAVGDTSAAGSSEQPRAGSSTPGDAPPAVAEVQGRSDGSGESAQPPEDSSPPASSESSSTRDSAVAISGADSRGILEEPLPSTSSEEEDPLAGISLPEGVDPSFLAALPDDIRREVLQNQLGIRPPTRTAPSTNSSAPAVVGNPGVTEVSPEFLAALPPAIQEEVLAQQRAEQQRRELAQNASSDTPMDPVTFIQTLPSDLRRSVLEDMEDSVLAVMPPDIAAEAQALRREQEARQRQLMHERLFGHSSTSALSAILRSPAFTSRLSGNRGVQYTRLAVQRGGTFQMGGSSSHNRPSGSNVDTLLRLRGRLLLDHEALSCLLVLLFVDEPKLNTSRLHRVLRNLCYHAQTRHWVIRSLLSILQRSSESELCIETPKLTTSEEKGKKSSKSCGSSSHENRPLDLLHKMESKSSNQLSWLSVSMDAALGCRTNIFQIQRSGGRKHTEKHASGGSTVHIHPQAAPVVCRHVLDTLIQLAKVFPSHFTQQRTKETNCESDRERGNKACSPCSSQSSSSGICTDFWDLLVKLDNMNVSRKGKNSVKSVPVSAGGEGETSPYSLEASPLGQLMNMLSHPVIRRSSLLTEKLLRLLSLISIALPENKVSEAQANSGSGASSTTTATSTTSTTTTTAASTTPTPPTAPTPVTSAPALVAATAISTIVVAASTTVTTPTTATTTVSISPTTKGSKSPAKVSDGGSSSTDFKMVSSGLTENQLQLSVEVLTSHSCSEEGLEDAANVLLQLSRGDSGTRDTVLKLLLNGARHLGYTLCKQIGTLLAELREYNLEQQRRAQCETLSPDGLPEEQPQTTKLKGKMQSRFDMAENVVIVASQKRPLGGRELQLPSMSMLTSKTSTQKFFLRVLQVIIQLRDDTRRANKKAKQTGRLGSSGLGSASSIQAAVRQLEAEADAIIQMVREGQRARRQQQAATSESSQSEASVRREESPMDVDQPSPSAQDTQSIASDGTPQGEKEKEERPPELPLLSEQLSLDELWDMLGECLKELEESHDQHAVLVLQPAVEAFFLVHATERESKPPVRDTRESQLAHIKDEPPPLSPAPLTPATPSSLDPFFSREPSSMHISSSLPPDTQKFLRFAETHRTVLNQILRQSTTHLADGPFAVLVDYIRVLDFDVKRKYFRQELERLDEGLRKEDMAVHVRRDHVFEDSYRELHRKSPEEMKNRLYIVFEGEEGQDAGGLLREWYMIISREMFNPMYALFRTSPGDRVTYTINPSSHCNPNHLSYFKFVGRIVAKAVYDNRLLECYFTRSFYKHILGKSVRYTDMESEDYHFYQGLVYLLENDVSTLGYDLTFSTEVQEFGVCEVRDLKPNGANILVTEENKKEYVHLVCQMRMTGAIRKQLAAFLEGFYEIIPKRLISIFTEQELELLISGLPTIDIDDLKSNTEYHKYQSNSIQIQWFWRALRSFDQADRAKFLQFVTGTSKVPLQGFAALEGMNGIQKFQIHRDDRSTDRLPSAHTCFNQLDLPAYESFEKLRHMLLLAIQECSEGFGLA

The target of test [1] is SFB-tagged YEATS4, wild type (human) (UniProt O95619). The test can be described thus: co-IP; exogenous (transfected) proteins; set-up shown only in Figures S3I and S4A.
Test [2] has the same target. Description: co-IP; HEK293T cotransfected with YEATS4, HUWE1 and rising amounts of KAT8 for 48 h; IP with streptavidin beads; Western blotting. In general terms: In western blotting, separated proteins are transferred to a membrane and probed.
The target in test [3] is SFB-tagged YEATS4 K64, 65, 69R (3KR) mutant (human) (UniProt O95619). The test can be described thus: co-IP; HEK293T cotransfected with HUWE1 and YEATS4 WT or 3KR for 48 h, 10 µM MG132 for 8 h; IP with streptavidin beads; Western blotting.
Test [4] deals with SFB-tagged YEATS4, wild type (human) (UniProt O95619). Described as above.
Test [5] addresses YEATS domain-containing protein 4 (YEATS4), endogenous in T24 cells (human (endogenous in T24)) (UniProt O95619). Description: co-IP; endogenous proteins of T24 cells; lysate in RIPA buffer (150 mM NaCl, 5 mM EDTA, 0.5% NP40, 50 mM Tris-HCl pH 8.0); anti-YEATS4 (Santa Cruz) or anti-IgG with protein A/G agarose, 4 °C overnight; Western blotting.

In the case of “HA-HUWE1 (from UniProt Q7Z6Z7 1-4374) (enzyme)”, the binding entry in test [1], in test [2], in test [3] and in test [4] was “binds” each time.
For the substance “HUWE1, endogenous in T24 cells (from UniProt Q7Z6Z7 1-4374) (enzyme)”, the binding result in test [5] is “binds”.

(Values after PMC11165526.)
